Data taken from patent publication US7084261B2 (Hoffmann-La Roche Inc., priority 2002, dated 2006).
Some peptides are written in HELM: one residue between dots, names in brackets for other building blocks, links after the first $.

Assay: peptide synthesis
Conditions: whole synthesis

PEPTIDE1{W.Q.E.W.E.Q.K.I.T.A.L.L.E.Q.A.Q.I.Q.Q.E.K.N.E.Y.E.L.Q.K.L.D.K.W.A.S.L.W.E.W.F.[am]}$$$$V2.0
purity (crude or final not stated): 93.7%
